PubChem BioAssay AID493246 – Drosophila RNAi Screening Center – 2011
The deposit covers about 21,000 reagents; this is an unselected part of those that have a named target and a result. In the full data, 429 (2%) were called active. 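Values are raw and not normalised between plates; calls rest on per-plate z-scores that were not deposited.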 Unmarked entries are inactive. Reagents against one gene are numbered here. Names joined by + are all predicted targets of the reagent. The record does not give: the amount of reagent, the time to read-out.

Aim: 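Identify essential fly genes by loss of cell viability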 (primary screen)
Cell system: Drosophila Kc and S2R+ cells
Reagents: long dsRNA against Drosophila genes
Measurement: 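Raw, unnormalised count of remaining cells in each well; per-plate z-scores of cell number underlie the calls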
Scale: Kc cell number and S2R+ cell number: higher = more cells remaining
Hit rule: 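Counted as a hit if cell number falls by a z-score of at least 3 within its plate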

{"gene": "CG15160 (GeneID 35109)", "reagent": 1, "Kc cell number, rep 1": 1.75e6, "Kc cell number, rep 2": 1.78e6, "S2R+ cell number, rep 1": 1.19e6, "S2R+ cell number, rep 2": 2.11e5}
{"gene": "Pde8 (GeneID 37741)", "reagent": 1, "Kc cell number, rep 1": 1.48e6, "Kc cell number, rep 2": 1.50e6, "S2R+ cell number, rep 1": 1.12e6, "S2R+ cell number, rep 2": 1.17e6}
{"gene": "Fbxl4 (GeneID 32378)", "reagent": 1, "Kc cell number, rep 1": 5.75e5, "S2R+ cell number, rep 1": 6.75e5}
{"gene": "Pif1A + Pif1B", "reagent": 1, "Kc cell number, rep 1": 1.64e6, "Kc cell number, rep 2": 1.87e6, "S2R+ cell number, rep 1": 1.27e6, "S2R+ cell number, rep 2": 1.34e6}
{"gene": "Pif1A + Pif1B", "reagent": 2, "Kc cell number, rep 1": 1.52e6, "Kc cell number, rep 2": 1.64e6, "S2R+ cell number, rep 1": 1.22e6, "S2R+ cell number, rep 2": 1.26e6}
{"gene": "Pif1A + Pif1B", "reagent": 3, "Kc cell number, rep 1": 1.44e6, "Kc cell number, rep 2": 1.60e6, "S2R+ cell number, rep 1": 1.27e6, "S2R+ cell number, rep 2": 1.38e6}
{"gene": "Rrp4 (GeneID 37731)", "reagent": 1, "Kc cell number, rep 1": 1.35e6, "Kc cell number, rep 2": 1.42e6, "S2R+ cell number, rep 1": 1.14e6, "S2R+ cell number, rep 2": 1.14e6}
{"gene": "CG10474 (GeneID 37211)", "reagent": 1, "Kc cell number, rep 1": 1.52e6, "Kc cell number, rep 2": 1.54e6, "S2R+ cell number, rep 1": 1.15e6, "S2R+ cell number, rep 2": 1.26e6}
{"gene": "meep (GeneID 261663)", "reagent": 1, "Kc cell number, rep 1": 1.49e6, "Kc cell number, rep 2": 1.52e6, "S2R+ cell number, rep 1": 1.03e6, "S2R+ cell number, rep 2": 1.16e6}
{"gene": "Muc68Ca (GeneID 2768980)", "reagent": 1, "Kc cell number, rep 1": 1.29e6, "Kc cell number, rep 2": 1.64e6, "S2R+ cell number, rep 1": 1.18e6, "S2R+ cell number, rep 2": 1.30e6}
{"gene": "CG9593 (GeneID 41912)", "reagent": 1, "Kc cell number, rep 1": 1.38e6, "Kc cell number, rep 2": 1.37e6, "S2R+ cell number, rep 1": 1.11e6, "S2R+ cell number, rep 2": 1.20e6}
{"gene": "GckIII (GeneID 42064)", "reagent": 1, "Kc cell number, rep 1": 1.19e6, "Kc cell number, rep 2": 1.17e6, "S2R+ cell number, rep 1": 9.33e5, "S2R+ cell number, rep 2": 1.04e6}
{"gene": "Cpr57A + Obp57d", "reagent": 1, "Kc cell number, rep 1": 1.33e6, "Kc cell number, rep 2": 1.35e6, "S2R+ cell number, rep 1": 1.20e6, "S2R+ cell number, rep 2": 1.23e6}
{"gene": "Sidpn (GeneID 35168)", "reagent": 1, "Kc cell number, rep 1": 1.37e6, "Kc cell number, rep 2": 1.48e6, "S2R+ cell number, rep 1": 1.31e6, "S2R+ cell number, rep 2": 1.28e6}
{"gene": "etaTry (GeneID 36217)", "reagent": 1, "Kc cell number, rep 1": 1.46e6, "Kc cell number, rep 2": 1.48e6, "S2R+ cell number, rep 1": 1.20e6, "S2R+ cell number, rep 2": 1.34e6}
{"gene": "kn (GeneID 45318)", "reagent": 1, "Kc cell number, rep 1": 1.38e6, "Kc cell number, rep 2": 1.45e6, "S2R+ cell number, rep 1": 9.85e5, "S2R+ cell number, rep 2": 1.14e6}
{"gene": "kn (GeneID 45318)", "reagent": 2, "Kc cell number, rep 1": 1.43e6, "Kc cell number, rep 2": 1.43e6, "S2R+ cell number, rep 1": 9.99e5, "S2R+ cell number, rep 2": 1.21e6}
{"gene": "kn (GeneID 45318)", "reagent": 3, "Kc cell number, rep 1": 1.41e6, "Kc cell number, rep 2": 1.46e6, "S2R+ cell number, rep 1": 9.80e5, "S2R+ cell number, rep 2": 1.15e6}
{"gene": "kn (GeneID 45318)", "reagent": 4, "Kc cell number, rep 1": 1.42e6, "Kc cell number, rep 2": 1.48e6, "S2R+ cell number, rep 1": 1.21e6, "S2R+ cell number, rep 2": 1.36e6}
{"gene": "CG8206 (GeneID 32516)", "reagent": 1, "Kc cell number, rep 1": 4.92e5, "S2R+ cell number, rep 1": 8.24e5}
{"gene": "Naa80 (GeneID 41195)", "reagent": 1, "Kc cell number, rep 1": 1.70e6, "Kc cell number, rep 2": 1.74e6, "S2R+ cell number, rep 1": 1.25e6, "S2R+ cell number, rep 2": 1.33e6}
{"gene": "Hdc (GeneID 36076)", "reagent": 1, "Kc cell number, rep 1": 1.34e6, "Kc cell number, rep 2": 1.36e6, "S2R+ cell number, rep 1": 1.16e6, "S2R+ cell number, rep 2": 1.22e6}
{"gene": "CG12551 (retired record) (GeneID 35518)", "reagent": 1, "Kc cell number, rep 1": 1.71e6, "Kc cell number, rep 2": 1.80e6, "S2R+ cell number, rep 1": 1.24e6, "S2R+ cell number, rep 2": 1.35e6}
{"gene": "CG12551 (retired record) (GeneID 35518)", "reagent": 2, "Kc cell number, rep 1": 1.63e6, "Kc cell number, rep 2": 1.64e6, "S2R+ cell number, rep 1": 1.26e6, "S2R+ cell number, rep 2": 1.38e6}
{"gene": "CysRS-m (GeneID 36563)", "reagent": 1, "Kc cell number, rep 1": 1.33e6, "Kc cell number, rep 2": 1.40e6, "S2R+ cell number, rep 1": 1.06e6, "S2R+ cell number, rep 2": 1.11e6}
{"gene": "Ptr (GeneID 35546)", "reagent": 1, "Kc cell number, rep 1": 1.63e6, "Kc cell number, rep 2": 1.60e6, "S2R+ cell number, rep 1": 1.40e6, "S2R+ cell number, rep 2": 1.50e6}
{"gene": "CG9547 (GeneID 33911)", "reagent": 1, "Kc cell number, rep 1": 1.26e6, "Kc cell number, rep 2": 1.43e6, "S2R+ cell number, rep 1": 4.92e5, "S2R+ cell number, rep 2": 4.78e5}

Taken from above:
Entry of CG12551 (retired record) (GeneID 35518) #1 under “Kc cell number, rep 1”: 1.71e6
Result of Pif1A + Pif1B #1 under “Kc cell number, rep 1”: 1.64e6
Entry for kn (GeneID 45318) #2 under “Kc cell number, rep 1”: 1.43e6
